Assay results taken from PMC8660637.
These are yes or no findings as the source states them, for the method shown. In cells and extracts the contact can be indirect. A yes stands for co-enrichment or nearness to the bait. Other partners may have been found. No binding means not detected with the bait.

Sequences of proteins named here, by UniProt entry; tags and fusion partners are left off.
UniProt O94864: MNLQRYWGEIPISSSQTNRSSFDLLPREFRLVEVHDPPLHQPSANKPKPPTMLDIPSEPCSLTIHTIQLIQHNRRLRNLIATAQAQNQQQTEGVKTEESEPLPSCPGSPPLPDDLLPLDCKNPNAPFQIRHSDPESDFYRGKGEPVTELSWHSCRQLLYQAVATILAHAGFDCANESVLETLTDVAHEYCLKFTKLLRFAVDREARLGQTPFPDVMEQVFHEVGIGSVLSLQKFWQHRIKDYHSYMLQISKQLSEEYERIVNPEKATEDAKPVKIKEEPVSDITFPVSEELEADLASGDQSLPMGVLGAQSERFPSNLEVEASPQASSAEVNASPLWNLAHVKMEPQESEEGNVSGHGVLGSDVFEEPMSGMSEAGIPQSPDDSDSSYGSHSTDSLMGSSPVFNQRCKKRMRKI
UniProt Q16531: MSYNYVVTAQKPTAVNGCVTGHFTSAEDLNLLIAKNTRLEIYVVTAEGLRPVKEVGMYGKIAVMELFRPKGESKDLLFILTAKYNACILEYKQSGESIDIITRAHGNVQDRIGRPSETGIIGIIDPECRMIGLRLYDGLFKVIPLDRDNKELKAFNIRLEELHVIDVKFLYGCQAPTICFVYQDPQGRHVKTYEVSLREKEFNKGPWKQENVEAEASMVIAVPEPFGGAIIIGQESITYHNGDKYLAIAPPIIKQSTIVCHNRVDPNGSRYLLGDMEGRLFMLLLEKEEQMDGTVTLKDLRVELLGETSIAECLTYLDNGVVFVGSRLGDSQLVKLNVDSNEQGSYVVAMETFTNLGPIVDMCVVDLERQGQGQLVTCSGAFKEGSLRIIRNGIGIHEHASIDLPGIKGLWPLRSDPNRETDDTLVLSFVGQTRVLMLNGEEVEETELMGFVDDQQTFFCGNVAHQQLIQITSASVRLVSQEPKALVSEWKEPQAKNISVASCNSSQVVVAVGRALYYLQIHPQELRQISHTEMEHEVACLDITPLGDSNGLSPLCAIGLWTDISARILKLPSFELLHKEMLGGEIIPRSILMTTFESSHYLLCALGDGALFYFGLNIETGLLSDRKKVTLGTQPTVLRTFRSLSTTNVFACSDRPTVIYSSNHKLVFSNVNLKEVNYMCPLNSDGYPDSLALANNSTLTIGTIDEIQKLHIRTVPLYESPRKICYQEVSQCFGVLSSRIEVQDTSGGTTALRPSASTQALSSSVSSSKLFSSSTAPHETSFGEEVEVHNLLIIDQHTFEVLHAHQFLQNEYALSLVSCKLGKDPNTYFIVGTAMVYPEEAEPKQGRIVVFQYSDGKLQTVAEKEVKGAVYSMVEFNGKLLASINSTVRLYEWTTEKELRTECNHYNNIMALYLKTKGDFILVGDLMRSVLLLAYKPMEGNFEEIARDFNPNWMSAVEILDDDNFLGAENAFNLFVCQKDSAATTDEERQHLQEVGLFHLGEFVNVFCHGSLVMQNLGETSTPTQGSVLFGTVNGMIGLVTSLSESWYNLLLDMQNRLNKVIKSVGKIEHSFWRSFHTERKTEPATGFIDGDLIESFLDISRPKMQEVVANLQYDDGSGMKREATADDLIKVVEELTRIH
UniProt Q15393: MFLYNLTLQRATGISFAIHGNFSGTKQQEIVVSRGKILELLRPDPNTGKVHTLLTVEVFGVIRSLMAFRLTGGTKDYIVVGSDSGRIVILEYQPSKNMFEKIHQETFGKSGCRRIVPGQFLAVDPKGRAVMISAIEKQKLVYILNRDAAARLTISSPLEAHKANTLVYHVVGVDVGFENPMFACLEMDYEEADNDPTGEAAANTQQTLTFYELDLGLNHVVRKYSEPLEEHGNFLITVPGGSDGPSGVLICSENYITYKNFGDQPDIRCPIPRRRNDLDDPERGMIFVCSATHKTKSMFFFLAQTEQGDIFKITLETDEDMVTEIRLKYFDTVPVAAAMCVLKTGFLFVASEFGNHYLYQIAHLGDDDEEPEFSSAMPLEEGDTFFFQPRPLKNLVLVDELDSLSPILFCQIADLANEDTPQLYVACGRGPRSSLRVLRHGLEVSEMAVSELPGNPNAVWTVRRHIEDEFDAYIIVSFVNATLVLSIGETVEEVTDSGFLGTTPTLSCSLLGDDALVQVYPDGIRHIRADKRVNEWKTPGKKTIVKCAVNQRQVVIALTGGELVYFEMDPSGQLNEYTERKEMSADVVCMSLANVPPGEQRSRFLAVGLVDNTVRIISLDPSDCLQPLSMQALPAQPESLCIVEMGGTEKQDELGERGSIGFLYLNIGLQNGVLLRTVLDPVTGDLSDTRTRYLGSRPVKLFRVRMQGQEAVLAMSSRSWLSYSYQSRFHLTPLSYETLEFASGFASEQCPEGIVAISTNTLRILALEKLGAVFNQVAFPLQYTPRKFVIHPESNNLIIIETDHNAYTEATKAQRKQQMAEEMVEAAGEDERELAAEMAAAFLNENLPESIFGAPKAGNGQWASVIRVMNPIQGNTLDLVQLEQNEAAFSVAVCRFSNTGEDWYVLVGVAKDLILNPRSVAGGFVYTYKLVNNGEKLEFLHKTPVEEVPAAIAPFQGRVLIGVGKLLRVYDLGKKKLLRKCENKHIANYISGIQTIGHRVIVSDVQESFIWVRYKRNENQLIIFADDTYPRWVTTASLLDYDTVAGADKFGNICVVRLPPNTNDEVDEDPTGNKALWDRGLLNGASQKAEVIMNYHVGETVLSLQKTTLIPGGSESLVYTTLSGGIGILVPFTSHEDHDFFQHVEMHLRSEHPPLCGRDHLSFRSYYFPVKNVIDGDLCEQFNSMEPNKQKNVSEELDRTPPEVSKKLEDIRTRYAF
UniProt O75486: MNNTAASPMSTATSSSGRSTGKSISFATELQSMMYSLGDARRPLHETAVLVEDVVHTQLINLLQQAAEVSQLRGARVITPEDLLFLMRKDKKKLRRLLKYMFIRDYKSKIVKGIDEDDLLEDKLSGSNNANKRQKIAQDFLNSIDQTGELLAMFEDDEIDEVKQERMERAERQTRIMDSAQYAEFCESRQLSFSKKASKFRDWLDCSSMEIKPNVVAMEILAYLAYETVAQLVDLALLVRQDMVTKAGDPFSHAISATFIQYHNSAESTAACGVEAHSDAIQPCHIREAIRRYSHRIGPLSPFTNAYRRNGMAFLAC
UniProt Q8NEM7: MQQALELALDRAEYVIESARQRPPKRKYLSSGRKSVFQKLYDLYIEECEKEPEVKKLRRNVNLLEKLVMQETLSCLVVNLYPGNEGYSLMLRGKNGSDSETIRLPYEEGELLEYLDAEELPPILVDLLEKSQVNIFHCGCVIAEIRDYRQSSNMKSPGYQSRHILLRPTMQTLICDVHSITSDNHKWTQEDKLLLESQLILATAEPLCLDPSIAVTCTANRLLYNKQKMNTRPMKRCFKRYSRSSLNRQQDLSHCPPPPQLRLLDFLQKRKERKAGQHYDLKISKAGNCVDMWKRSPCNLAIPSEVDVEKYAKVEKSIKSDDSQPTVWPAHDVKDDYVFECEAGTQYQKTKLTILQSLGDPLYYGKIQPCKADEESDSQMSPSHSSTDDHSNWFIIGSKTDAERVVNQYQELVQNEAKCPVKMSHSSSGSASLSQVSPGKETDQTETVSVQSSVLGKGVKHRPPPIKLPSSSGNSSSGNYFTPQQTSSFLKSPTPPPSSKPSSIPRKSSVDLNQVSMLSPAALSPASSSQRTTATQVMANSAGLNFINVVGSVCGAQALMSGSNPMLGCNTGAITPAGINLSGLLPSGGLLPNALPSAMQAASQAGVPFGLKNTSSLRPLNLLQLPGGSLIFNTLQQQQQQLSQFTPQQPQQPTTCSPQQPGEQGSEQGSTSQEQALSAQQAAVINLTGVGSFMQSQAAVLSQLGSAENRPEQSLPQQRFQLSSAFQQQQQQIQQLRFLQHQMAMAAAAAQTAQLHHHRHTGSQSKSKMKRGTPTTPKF
UniProt Q96BN2: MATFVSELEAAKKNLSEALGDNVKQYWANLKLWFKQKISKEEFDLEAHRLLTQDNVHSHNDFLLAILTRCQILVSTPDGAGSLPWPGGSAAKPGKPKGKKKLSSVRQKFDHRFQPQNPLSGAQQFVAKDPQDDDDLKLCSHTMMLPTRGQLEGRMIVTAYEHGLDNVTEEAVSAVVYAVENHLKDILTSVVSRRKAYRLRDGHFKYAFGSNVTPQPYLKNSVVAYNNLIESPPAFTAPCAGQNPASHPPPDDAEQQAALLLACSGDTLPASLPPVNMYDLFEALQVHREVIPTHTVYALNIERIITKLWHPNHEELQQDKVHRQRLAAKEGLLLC
UniProt O75529: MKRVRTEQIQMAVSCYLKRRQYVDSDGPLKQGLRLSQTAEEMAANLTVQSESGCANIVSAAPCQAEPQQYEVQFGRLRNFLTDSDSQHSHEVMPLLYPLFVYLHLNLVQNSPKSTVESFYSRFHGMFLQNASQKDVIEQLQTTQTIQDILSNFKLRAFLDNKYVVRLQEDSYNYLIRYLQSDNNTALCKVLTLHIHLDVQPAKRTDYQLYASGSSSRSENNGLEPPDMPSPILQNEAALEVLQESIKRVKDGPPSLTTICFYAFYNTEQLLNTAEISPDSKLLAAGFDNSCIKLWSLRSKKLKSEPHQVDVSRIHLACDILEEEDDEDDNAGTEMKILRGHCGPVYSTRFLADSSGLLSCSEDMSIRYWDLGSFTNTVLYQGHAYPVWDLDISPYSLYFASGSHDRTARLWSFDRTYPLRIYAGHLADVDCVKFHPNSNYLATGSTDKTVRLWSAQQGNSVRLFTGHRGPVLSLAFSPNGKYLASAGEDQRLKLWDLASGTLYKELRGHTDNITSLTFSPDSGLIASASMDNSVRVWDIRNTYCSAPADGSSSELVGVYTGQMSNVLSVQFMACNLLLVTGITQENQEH
UniProt Q16514: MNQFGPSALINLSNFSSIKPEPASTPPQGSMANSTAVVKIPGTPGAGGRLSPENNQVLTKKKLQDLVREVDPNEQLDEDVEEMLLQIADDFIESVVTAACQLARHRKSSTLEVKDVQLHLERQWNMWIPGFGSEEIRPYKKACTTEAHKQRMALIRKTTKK

biological target: SUPT7L-Halo-(FLAG)3 (human (endogenous in HeLa)) (UniProt O94864); assay: affinity purification with mass spectrometry; same FLAG purification of hSAGA by SUPT7L-Halo-(FLAG)3; about 1 µg digested with trypsin or chymotrypsin, Orbitrap Elite, Sequest and Scaffold

Q: For DDB1 (from UniProt Q16531 1-1140), which binding is on record?
A: no binding

Q: For SF3B3 (from UniProt Q15393 1-1217), which binding is on record?
A: binds

Q: SUPT3H (from UniProt O75486 1-317) was tested. Which binding did it give?
A: binds

Q: SUPT20H (from UniProt Q8NEM7 1-779) was tested. Which binding did it give?
A: binds

Q: With TADA1 (from UniProt Q96BN2 1-335) as the substance, how does the binding read?
A: binds

Q: TAF5L (from UniProt O75529 1-589) was tested. Which binding did it give?
A: binds

Q: With TAF12 (from UniProt Q16514 1-161) as the substance, how does the binding read?
A: binds
